Data published in the supplement of paper PMC8728848.
The other results are listed elsewhere or left out.

Columns and labels:
Experiment in all cases: glycan array binding signal (z-score within array); higher = stronger binding
Settings in all cases: glycan notation: IUPAC condensed, linker removed
[1] = target: Gal(b1-4)GlcNAc(b1-3)Gal(b1-4)GlcNAc(b1-2)[Gal(b1-4)GlcNAc(b1-3)Gal(b1-4)GlcNAc(b1-6)]Man(a1-6)[Gal(b1-4)GlcNAc(b1-3)Gal(b1-4)GlcNAc(b1-2)Man(a1-3)]Man(b1-4)GlcNAc(b1-4)GlcNAc
Method in brief: (§1)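 The Consortium for Functional Glycomics database supplied 3228 glycan arrays, of which those lacking an available protein sequence were dropped. The binding signal, a within-array Z-score, was averaged across arrays of the same protein sequence and across linkers. Negative scores can be read as non-binding.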

[2] = target: Gal(b1-4)GlcNAc(b1-3)Gal(b1-4)GlcNAc(b1-2)[Gal(b1-4)GlcNAc(b1-3)Gal(b1-4)GlcNAc(b1-6)]Man(a1-6)[Gal(b1-4)GlcNAc(b1-3)Gal(b1-4)GlcNAc(b1-2)Man(a1-3)]Man(b1-4)GlcNAc(b1-4)[Fuc(a1-6)]GlcNAc
Method in brief: as §1

[3] = target: Gal(b1-4)GlcNAc(b1-3)Gal(b1-4)GlcNAc(b1-3)Gal(b1-4)GlcNAc
Method in brief: as §1

[4] = target: Gal(b1-4)GlcNAc(b1-3)Gal(b1-4)GlcNAc(b1-3)Gal(b1-4)GlcNAc(b1-2)Man(a1-3)[Gal(b1-4)GlcNAc(b1-3)Gal(b1-4)GlcNAc(b1-3)Gal(b1-4)GlcNAc(b1-2)Man(a1-6)]Man(b1-4)GlcNAc(b1-4)GlcNAc
Method in brief: as §1

[5] = target: Gal(b1-4)GlcNAc(b1-3)Gal(b1-4)GlcNAc(b1-3)Gal(b1-4)GlcNAc(b1-2)Man(a1-3)[Gal(b1-4)GlcNAc(b1-3)Gal(b1-4)GlcNAc(b1-3)Gal(b1-4)GlcNAc(b1-2)Man(a1-6)]Man(b1-4)GlcNAc(b1-4)[Fuc(a1-6)]GlcNAc
Method in brief: as §1

[6] = target: Gal(b1-4)GlcNAc(b1-3)Gal(b1-4)GlcNAc(b1-3)Gal(b1-4)GlcNAc(b1-2)[Gal(b1-4)GlcNAc(b1-3)Gal(b1-4)GlcNAc(b1-3)Gal(b1-4)GlcNAc(b1-6)]Man(a1-6)[Gal(b1-4)GlcNAc(b1-3)Gal(b1-4)GlcNAc(b1-3)Gal(b1-4)GlcNAc(b1-2)Man(a1-3)]Man(b1-4)GlcNAc(b1-4)[Fuc(a1-6)]GlcNAc
Method in brief: as §1

[7] = target: Gal(b1-4)GlcNAc(b1-3)Gal(b1-4)GlcNAc(b1-3)Gal(b1-4)GlcNAc(b1-3)Gal(b1-4)GlcNAc(b1-2)Man(a1-3)[Gal(b1-4)GlcNAc(b1-3)Gal(b1-4)GlcNAc(b1-3)Gal(b1-4)GlcNAc(b1-3)Gal(b1-4)GlcNAc(b1-2)Man(a1-6)]Man(b1-4)GlcNAc(b1-4)GlcNAc
Method in brief: as §1

[8] = target: Gal(b1-4)GlcNAc(b1-3)Gal(b1-4)GlcNAc(b1-3)Gal(b1-4)GlcNAc(b1-3)Gal(b1-4)GlcNAc(b1-2)Man(a1-3)[Gal(b1-4)GlcNAc(b1-3)Gal(b1-4)GlcNAc(b1-3)Gal(b1-4)GlcNAc(b1-3)Gal(b1-4)GlcNAc(b1-2)Man(a1-6)]Man(b1-4)GlcNAc(b1-4)[Fuc(a1-6)]GlcNAc
Method in brief: as §1

[9] = target: Gal(b1-4)GlcNAc(b1-3)Gal(b1-4)GlcNAc(b1-3)Gal(b1-4)GlcNAc(b1-3)Gal(b1-4)GlcNAc(b1-2)[Gal(b1-4)GlcNAc(b1-3)Gal(b1-4)GlcNAc(b1-3)Gal(b1-4)GlcNAc(b1-3)Gal(b1-4)GlcNAc(b1-6)]Man(a1-6)[Gal(b1-4)GlcNAc(b1-3)Gal(b1-4)GlcNAc(b1-3)Gal(b1-4)GlcNAc(b1-3)Gal(b1-4)GlcNAc(b1-2)Man(a1-3)]Man(b1-4)GlcNAc(b1-4)[Fuc(a1-6)]GlcNAc
Method in brief: as §1

[10] = target: Gal(b1-4)GlcNAc(b1-3)Gal(b1-4)GlcNAc(b1-3)Gal(b1-4)GlcNAc(b1-3)Gal(b1-4)GlcNAc(b1-3)Gal(b1-4)GlcNAc(b1-2)Man(a1-3)[Gal(b1-4)GlcNAc(b1-3)Gal(b1-4)GlcNAc(b1-3)Gal(b1-4)GlcNAc(b1-3)Gal(b1-4)GlcNAc(b1-3)Gal(b1-4)GlcNAc(b1-2)Man(a1-6)]Man(b1-4)GlcNAc(b1-4)GlcNAc
Method in brief: as §1

[11] = target: Gal(b1-4)GlcNAc(b1-3)Gal(b1-4)GlcNAc(b1-3)Gal(b1-4)GlcNAc(b1-3)Gal(b1-4)GlcNAc(b1-3)Gal(b1-4)GlcNAc(b1-2)Man(a1-3)[Gal(b1-4)GlcNAc(b1-3)Gal(b1-4)GlcNAc(b1-3)Gal(b1-4)GlcNAc(b1-3)Gal(b1-4)GlcNAc(b1-3)Gal(b1-4)GlcNAc(b1-2)Man(a1-6)]Man(b1-4)GlcNAc(b1-4)[Fuc(a1-6)]GlcNAc
Method in brief: as §1

[12] = target: Gal(b1-4)GlcNAc(b1-3)Gal(b1-4)GlcNAc(b1-3)Gal(b1-4)GlcNAc(b1-3)Gal(b1-4)GlcNAc(b1-3)Gal(b1-4)GlcNAc(b1-2)[Gal(b1-4)GlcNAc(b1-3)Gal(b1-4)GlcNAc(b1-3)Gal(b1-4)GlcNAc(b1-3)Gal(b1-4)GlcNAc(b1-3)Gal(b1-4)GlcNAc(b1-6)]Man(a1-6)[Gal(b1-4)GlcNAc(b1-3)Gal(b1-4)GlcNAc(b1-3)Gal(b1-4)GlcNAc(b1-3)Gal(b1-4)GlcNAc(b1-3)Gal(b1-4)GlcNAc(b1-2)Man(a1-3)]Man(b1-4)GlcNAc(b1-4)[Fuc(a1-6)]GlcNAc
Method in brief: as §1

[13] = target: Gal(b1-4)GlcNAc(b1-3)Gal(b1-4)GlcNAc(b1-3)Gal(b1-4)GlcNAc(b1-3)Gal(b1-4)GlcNAc(b1-3)Gal(b1-4)GlcNAc(b1-3)Gal(b1-4)GlcNAc(b1-2)Man(a1-3)[Gal(b1-4)GlcNAc(b1-3)Gal(b1-4)GlcNAc(b1-3)Gal(b1-4)GlcNAc(b1-3)Gal(b1-4)GlcNAc(b1-3)Gal(b1-4)GlcNAc(b1-3)Gal(b1-4)GlcNAc(b1-2)Man(a1-6)]Man(b1-4)GlcNAc(b1-4)GlcNAc
Method in brief: as §1

[14] = target: Gal(b1-4)GlcNAc(b1-3)Gal(b1-4)GlcNAc(b1-3)GalNAc
Method in brief: as §1

[15] = target: Gal(b1-4)GlcNAc(b1-3)Gal(b1-4)GlcNAc(b1-3)[Gal(b1-4)GlcNAc(b1-3)Gal(b1-4)GlcNAc(b1-6)]GalNAc
Method in brief: as §1

[16] = target: Gal(b1-4)GlcNAc(b1-3)Gal(b1-4)GlcNAc(b1-6)[Gal(b1-3)]GalNAc
Method in brief: as §1

[17] = target: Gal(b1-4)GlcNAc(b1-3)Gal(b1-4)[Fuc(a1-3)]GlcNAc(b1-3)Gal(b1-4)[Fuc(a1-3)]GlcNAc
Method in brief: as §1

[18] = target: Gal(b1-4)GlcNAc(b1-3)GalNAc
Method in brief: as §1

[19] = target: Gal(b1-4)GlcNAc(b1-3)[Fuc(a1-3)GlcNAc(b1-6)]Gal(b1-4)Glc
Method in brief: as §1

[20] = target: Gal(b1-4)GlcNAc(b1-3)[Gal(b1-4)GlcNAc(b1-6)]Gal(b1-4)GlcNAc
Method in brief: as §1

[21] = target: Gal(b1-4)GlcNAc(b1-3)[GlcNAc(b1-6)]Gal(b1-4)GlcNAc
Method in brief: as §1

[22] = target: Gal(b1-4)GlcNAc(b1-6)Gal(b1-4)GlcNAc
Method in brief: as §1

[23] = target: Gal(b1-4)GlcNAc(b1-6)GalNAc
Method in brief: as §1

[24] = target: Gal(b1-4)GlcNAc(b1-6)[Gal(b1-3)]GalNAc
Method in brief: as §1

[25] = target: Gal(b1-4)GlcNAc(b1-6)[Gal(b1-4)GlcNAc(b1-3)]GalNAc
Method in brief: as §1

Gal(b1-4)GlcNAc6P = target: Gal(b1-4)GlcNAc6P
Method in brief: as §1

Gal(b1-6)Gal = target: Gal(b1-6)Gal
Method in brief: as §1

Gal3S(b1-3)GalNAc = target: Gal3S(b1-3)GalNAc
Method in brief: as §1

Gal3S(b1-3)GlcNAc = target: Gal3S(b1-3)GlcNAc
Method in brief: as §1

[26] = target: Gal3S(b1-3)[Fuc(a1-4)]GlcNAc
Method in brief: as §1

Gal3S(b1-4)Glc = target: Gal3S(b1-4)Glc
Method in brief: as §1

Gal3S(b1-4)Glc6S = target: Gal3S(b1-4)Glc6S
Method in brief: as §1

Gal3S(b1-4)GlcNAc = target: Gal3S(b1-4)GlcNAc
Method in brief: as §1

[27] = target: Gal3S(b1-4)[Fuc(a1-3)]Glc6S
Method in brief: as §1

[28] = target: Gal3S(b1-4)[Fuc(a1-3)]GlcNAc
Method in brief: as §1

[29] = target: Gal3S(b1-4)[Fuc(a1-3)]GlcNAc6S
Method in brief: as §1

Gal3S4S(b1-4)GlcNAc = target: Gal3S4S(b1-4)GlcNAc
Method in brief: as §1

Gal3S6S(b1-4)GlcNAc = target: Gal3S6S(b1-4)GlcNAc
Method in brief: as §1

Gal3S6S(b1-4)GlcNAc6S = target: Gal3S6S(b1-4)GlcNAc6S
Method in brief: as §1

Gal4S(b1-4)GlcNAc = target: Gal4S(b1-4)GlcNAc
Method in brief: as §1

Gal4S6S(b1-4)GlcNAc = target: Gal4S6S(b1-4)GlcNAc
Method in brief: as §1

Gal6P(b1-4)GlcNAc = target: Gal6P(b1-4)GlcNAc
Method in brief: as §1

Gal6S(b1-3)GlcNAc = target: Gal6S(b1-3)GlcNAc
Method in brief: as §1

Gal6S(b1-3)GlcNAc6S = target: Gal6S(b1-3)GlcNAc6S
Method in brief: as §1

Gal6S(b1-4)Glc = target: Gal6S(b1-4)Glc
Method in brief: as §1

B1: Agalectin (Anopheles gambiae) (protein)
chain: MSNRPFTAKFPRYPENGDEVFIRGKLKDDAKSFSVNFCLPRPAQVAEHQTPPYIALHFKTIYDERDDTSRVVLNWKNLQWQQEEVLDNYWHVDRSQTFRVVFRLHEDCIKVFVNSVDHPPDYQFPVQLPLDQIESIELWDDVEHVEEISFRYDNGNSY
glycan array binding signal (z-score) [1]: 0.848
glycan array binding signal (z-score) [2]: -0.276
glycan array binding signal (z-score) [3]: 0.007
glycan array binding signal (z-score) [4]: 2.89
glycan array binding signal (z-score) [5]: 1.86
glycan array binding signal (z-score) [6]: 1.48
glycan array binding signal (z-score) [7]: 1.76
glycan array binding signal (z-score) [8]: 3.26
glycan array binding signal (z-score) [9]: -0.07
glycan array binding signal (z-score) [10]: 1.15
glycan array binding signal (z-score) [11]: 1.35
glycan array binding signal (z-score) [12]: 0.622
glycan array binding signal (z-score) [13]: 0.694
glycan array binding signal (z-score) [14]: 0.216
glycan array binding signal (z-score) [15]: 1.1
glycan array binding signal (z-score) [16]: 1.67
glycan array binding signal (z-score) [17]: 0.018
glycan array binding signal (z-score) [18]: -0.509
glycan array binding signal (z-score) [19]: -0.172
glycan array binding signal (z-score) [20]: 0.477
glycan array binding signal (z-score) [21]: 1.35
glycan array binding signal (z-score) [22]: -0.474
glycan array binding signal (z-score) [23]: 0.194
glycan array binding signal (z-score) [24]: -0.657
glycan array binding signal (z-score) [25]: -0.199
glycan array binding signal (z-score) (Gal(b1-4)GlcNAc6P): -0.18
glycan array binding signal (z-score) (Gal(b1-6)Gal): -1.18
glycan array binding signal (z-score) (Gal3S(b1-3)GalNAc): 0.617
glycan array binding signal (z-score) (Gal3S(b1-3)GlcNAc): -0.175
glycan array binding signal (z-score) [26]: 0.674
glycan array binding signal (z-score) (Gal3S(b1-4)Glc): -0.709
glycan array binding signal (z-score) (Gal3S(b1-4)Glc6S): -0.949
glycan array binding signal (z-score) (Gal3S(b1-4)GlcNAc): 0.497
glycan array binding signal (z-score) [27]: 1.35
glycan array binding signal (z-score) [28]: -0.534
glycan array binding signal (z-score) [29]: -0.269
glycan array binding signal (z-score) (Gal3S4S(b1-4)GlcNAc): -0.443
glycan array binding signal (z-score) (Gal3S6S(b1-4)GlcNAc): -0.244
glycan array binding signal (z-score) (Gal3S6S(b1-4)GlcNAc6S): -0.011
glycan array binding signal (z-score) (Gal4S(b1-4)GlcNAc): 0.381
glycan array binding signal (z-score) (Gal4S6S(b1-4)GlcNAc): 0.114
glycan array binding signal (z-score) (Gal6P(b1-4)GlcNAc): -0.335
glycan array binding signal (z-score) (Gal6S(b1-3)GlcNAc): -1.05
glycan array binding signal (z-score) (Gal6S(b1-3)GlcNAc6S): -0.589
glycan array binding signal (z-score) (Gal6S(b1-4)Glc): -0.372
